System: mouse model of generalised seizure
Test: MEST (maximal electroshock seizure threshold) test in the mouse
Settings: diazepam 2.5 mg/kg i.p., test 30 min post dose
Procedure: The efficacy of the cannabinoid derivative of 1 was tested in a mouse model of generalised seizure, the maximal electroshock seizure threshold (MEST) test.
The protocol according to Example 2 was followed, with the current lowered or raised in intervals of 5 mA instead of log scale intervals.

Question: Which results are given for `CN1C(=O)CN=C(c2ccccc2)c2cc(Cl)ccc21` [Diazepam, diazepam, reference compound]?
Answer: CC50 +/− SEM: 84.2 mA; CC50 +/− SEM (listed as diazepam): 84.2 mA
